Laboratory results as given in patent US7179495B1 (Universitaetsklinikum Freiburg, priority 1998, dated 2007).
Like-named read-outs stand apart in the source and are kept apart here.

Columns and labels:
[1] = test system: peripheral blood mononuclear cells (PBMC); conditions: for proliferation of PBMC: PHA 1 μg/ml, 24 h, FIG. 7
[2] = test system: A431 (human squamous cell carcinoma); conditions: % of the untreated cells
[3] = test system: Jurkat (human leukaemic lymphoma); conditions: % of the untreated cells
[4] = test system: HT144 (human melanoma metastasis); conditions: % of the untreated cells

Question: How did the “concentration from which a proliferation-inhibiting effect is seen” value ([1]; human lymphocytes) turn out when `CC(C)=CCC[C@]1(C)[C@@H](CC=C(C)C)CC2(CC=C(C)C)C(=O)C(CC=C(C)C)=C(O)C1(C(=O)C(C)C)C2=O` (stereo partly drawn) [hyperforin] was run?
Answer: The value was ≥ 100 ng/mL.

Question: What about the “proliferation of PBMC” value ([1]; hyperforin 100 μg/ml) of the same compound?
Answer: The value was “virtually completely inhibited”.

Question: What about the “proliferation of PBMC” value ([1]; small concentrations of hyperforin) of the same compound?
Answer: The value was “proliferation-inhibiting effect”.

Question: What about the Trypan blue exclusion ([2]; hyperforin 2.5 μg/ml) of the same compound?
Answer: Its Trypan blue exclusion is 100 % of the cells.

Question: And the Trypan blue exclusion ([2]; hyperforin 5 μg/ml)?
Answer: Its Trypan blue exclusion is 100 % of the cells.

Question: And the Trypan blue exclusion ([2]; hyperforin 10 μg/ml)?
Answer: The Trypan blue exclusion was 100 % of the cells.

Question: And the Trypan blue exclusion ([2]; hyperforin 20 μg/ml)?
Answer: Its Trypan blue exclusion is 95 % of the cells.

Question: What about the Trypan blue exclusion ([2]; hyperforin 40 μg/ml) of the same compound?
Answer: Its Trypan blue exclusion is 90 % of the cells.

Question: What about the Trypan blue exclusion ([2]; hyperforin 80 μg/ml) of the same compound?
Answer: The Trypan blue exclusion was 90 % of the cells.

Question: What about the Trypan blue exclusion ([3]; hyperforin 2.5 μg/ml) of the same compound?
Answer: The Trypan blue exclusion was 100 % of the cells.

Question: And the Trypan blue exclusion ([3]; hyperforin 5 μg/ml)?
Answer: Its Trypan blue exclusion is 100 % of the cells.

Question: What about the Trypan blue exclusion ([3]; hyperforin 10 μg/ml) of the same compound?
Answer: Its Trypan blue exclusion is 100 % of the cells.

Question: What about the Trypan blue exclusion ([3]; hyperforin 20 μg/ml) of the same compound?
Answer: The Trypan blue exclusion was 100 % of the cells.

Question: What about the Trypan blue exclusion ([3]; hyperforin 40 μg/ml) of the same compound?
Answer: Its Trypan blue exclusion is 100 % of the cells.

Question: What about the Trypan blue exclusion ([3]; hyperforin 80 μg/ml) of the same compound?
Answer: Its Trypan blue exclusion is 100 % of the cells.

Question: And the Trypan blue exclusion ([4]; hyperforin 2.5 μg/ml)?
Answer: Its Trypan blue exclusion is 100 % of the cells.

Question: And the Trypan blue exclusion ([4]; hyperforin 5 μg/ml)?
Answer: Its Trypan blue exclusion is 100 % of the cells.

Question: What about the Trypan blue exclusion ([4]; hyperforin 10 μg/ml) of the same compound?
Answer: Its Trypan blue exclusion is 100 % of the cells.

Question: What about the Trypan blue exclusion ([4]; hyperforin 20 μg/ml) of the same compound?
Answer: The Trypan blue exclusion was 100 % of the cells.

Question: What about the Trypan blue exclusion ([4]; hyperforin 40 μg/ml) of the same compound?
Answer: Its Trypan blue exclusion is 90 % of the cells.

Question: And the Trypan blue exclusion ([4]; hyperforin 80 μg/ml)?
Answer: Its Trypan blue exclusion is 80 % of the cells.
